Data taken from paper PMC8220817.
No constants are given. Whether binding was seen depends on the method and setting. Binding seen in cells or lysates may run through a third protein. These calls come from enrichment with a bait or labelling near it, and not all partners need be listed.

By UniProt entry, the sequences of proteins in these tests, tags left out.
UniProt P42224: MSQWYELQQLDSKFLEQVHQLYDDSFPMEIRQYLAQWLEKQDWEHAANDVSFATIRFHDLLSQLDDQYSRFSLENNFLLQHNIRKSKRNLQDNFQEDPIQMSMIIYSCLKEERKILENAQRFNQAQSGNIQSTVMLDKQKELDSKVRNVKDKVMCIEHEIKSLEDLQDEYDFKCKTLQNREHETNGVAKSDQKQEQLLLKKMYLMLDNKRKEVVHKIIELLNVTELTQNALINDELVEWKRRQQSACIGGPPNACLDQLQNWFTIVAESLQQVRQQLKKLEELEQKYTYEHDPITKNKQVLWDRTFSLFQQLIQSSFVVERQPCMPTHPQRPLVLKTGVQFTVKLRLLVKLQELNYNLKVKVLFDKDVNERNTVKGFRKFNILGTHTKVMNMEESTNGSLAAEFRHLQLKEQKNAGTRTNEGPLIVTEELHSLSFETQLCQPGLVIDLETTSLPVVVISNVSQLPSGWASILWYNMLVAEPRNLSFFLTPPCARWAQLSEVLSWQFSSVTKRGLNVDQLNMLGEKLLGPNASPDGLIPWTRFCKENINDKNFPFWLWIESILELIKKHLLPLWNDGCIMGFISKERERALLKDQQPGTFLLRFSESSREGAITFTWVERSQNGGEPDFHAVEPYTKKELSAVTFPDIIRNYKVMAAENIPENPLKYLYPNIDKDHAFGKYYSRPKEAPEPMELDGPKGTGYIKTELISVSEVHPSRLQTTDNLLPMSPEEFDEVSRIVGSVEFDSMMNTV

Biological target: T1, LpCat1 (lysophosphatidylcholine acyltransferase 1) (human) (UniProt Q8NF37)
T1 sequence: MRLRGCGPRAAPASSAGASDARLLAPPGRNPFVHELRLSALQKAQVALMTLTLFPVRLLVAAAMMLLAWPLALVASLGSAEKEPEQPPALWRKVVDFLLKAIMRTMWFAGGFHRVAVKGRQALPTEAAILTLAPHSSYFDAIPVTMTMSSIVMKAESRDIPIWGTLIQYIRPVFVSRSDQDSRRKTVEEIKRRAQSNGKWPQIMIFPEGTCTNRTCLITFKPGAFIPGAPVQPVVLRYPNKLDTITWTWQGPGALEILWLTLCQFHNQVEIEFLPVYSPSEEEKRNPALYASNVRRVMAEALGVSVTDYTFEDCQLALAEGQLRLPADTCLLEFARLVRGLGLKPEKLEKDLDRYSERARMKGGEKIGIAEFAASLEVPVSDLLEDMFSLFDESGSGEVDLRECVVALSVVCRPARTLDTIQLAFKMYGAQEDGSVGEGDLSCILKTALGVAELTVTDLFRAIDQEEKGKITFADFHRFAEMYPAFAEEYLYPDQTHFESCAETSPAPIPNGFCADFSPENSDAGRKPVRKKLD
Assay: affinity purification with mass spectrometry; IP with anti-LpCat1 antibody (1 ug) from cell lysate (1 mg) of Huh7 cells stably transfected with LpCat1 overexpression or null control vector, overnight at 4 C; Protein A/G Sepharose beads 2 h; SDS-PAGE, Coomassie bands analysed by LC/MS

Substance: STAT1 (from UniProt P42224 1-750)
- binding: binds
